Data from paper PMC10314948.
No constants are given. Whether binding was seen depends on the method and setting. Binding seen in cells or lysates may run through a third protein. Some binding calls cover weakened binding; strength is not graded here. Sequences can lack the tags named with a protein.

By UniProt entry, the sequences of proteins in these tests, tags left out.
UniProt P61586: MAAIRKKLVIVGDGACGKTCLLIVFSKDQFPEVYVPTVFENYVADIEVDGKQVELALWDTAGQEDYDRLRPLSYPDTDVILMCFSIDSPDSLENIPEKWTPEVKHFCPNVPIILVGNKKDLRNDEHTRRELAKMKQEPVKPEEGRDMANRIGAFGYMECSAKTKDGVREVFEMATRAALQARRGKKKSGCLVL

Biological target: active form of RhoA (GTP-RhoA) (human (endogenous in 16HBE)) (UniProt P61586)
Assay: pull-down; GST-Rhotekin RBD-coated beads (EZ-Detect RhoA Activation Kit) capture GTP-RhoA from lysates of 16HBE cells transfected with Flag-ROCK2(WT or K1007R); ROCK2 found with it by western blot

- binding: binds
B1: Flag-ROCK2(K1007R) (enzyme, UniProt O75116 1-1388)
chain: MSRPPPTGKMPGAPETAPGDGAGASRQRKLEALIRDPRSPINVESLLDGLNSLVLDLDFPALRKNKNIDNFLNRYEKIVKKIRGLQMKAEDYDVVKVIGRGAFGEVQLVRHKASQKVYAMKLLSKFEMIKRSDSAFFWEERDIMAFANSPWVVQLFYAFQDDRYLYMVMEYMPGGDLVNLMSNYDVPEKWAKFYTAEVVLALDAIHSMGLIHRDVKPDNMLLDKHGHLKLADFGTCMKMDETGMVHCDTAVGTPDYISPEVLKSQGGDGFYGRECDWWSVGVFLYEMLVGDTPFYADSLVGTYSKIMDHKNSLCFPEDAEISKHAKNLICAFLTDREVRLGRNGVEEIRQHPFFKNDQWHWDNIRETAAPVVPELSSDIDSSNFDDIEDDKGDVETFPIPKAFVGNQLPFIGFTYYRENLLLSDSPSCRETDSIQSRKNEESQEIQKKLYTLEEHLSNEMQAKEELEQKCKSVNTRLEKTAKELEEEITLRKSVESALRQLEREKALLQHKNAEYQRKADHEADKKRNLENDVNSLKDQLEDLKKRNQNSQISTEKVNQLQRQLDETNALLRTESDTAARLRKTQAESSKQIQQLESNNRDLQDKNCLLETAKLKLEKEFINLQSALESERRDRTHGSEIINDLQGRICGLEEDLKNGKILLAKVELEKRQLQERFTDLEKEKSNMEIDMTYQLKVIQQSLEQEEAEHKATKARLADKNKIYESIEEAKSEAMKEMEKKLLEERTLKQKVENLLLEAEKRCSLLDCDLKQSQQKINELLKQKDVLNEDVRNLTLKIEQETQKRCLTQNDLKMQTQQVNTLKMSEKQLKQENNHLMEMKMNLEKQNAELRKERQDADGQMKELQDQLEAEQYFSTLYKTQVRELKEECEEKTKLGKELQQKKQELQDERDSLAAQLEITLTKADSEQLARSIAEEQYSDLEKEKIMKELEIKEMMARHKQELTEKDATIASLEETNRTLTSDVANLANEKEELNNKLKDVQEQLSRLRDEEISAAAIKAQFEKQLLTERTLKTQAVNKLAEIMNRKEPVKRGNDTDVRRKEKENRKLHMELKSEREKLTQQMIKYQKELNEMQAQIAEESQIRIELQMTLDSKDSDIEQLRSQLQALHIGLDSSSIGSGPGDAEADDGFPESRLEGWLSLPVRNNTKKFGWVKKYVIVSSKKILFYDSEQDKEQSNPYMVLDIDKLFHVRPVTQTDVYRADAKEIPRIFQILYANEGESKKEQEFPVEPVGEKSNYICHKGHEFIPTLYHFPTNCEACMKPLWHMFKPPPALECRRCHIKCHKDHMDKKEEIIAPCKVYYDISTAKNLLLLANSTEEQQKWVSRLVKKIPKKPPAPDPFARSSPRTSMKIQQNQSIRRPSRQLAPNKPS
